# Measurements as given in PubChem BioAssay AID540276 (National Center for Advancing Translational Sciences (NCATS), 2011).
# Out of some 300,000 compounds screened, about 5,400 (1.8%) were called active. Inconclusive means that the source gave no clear call. Such entries were picked first, then a sample of the others. Calls come from the whole dose curve; tested in HEK293 cells. Potencies of inconclusive entries are doubtful fits and often do not repeat.
# Experiment: qHTS for inhibitors of binding or entry into cells for Marburg Virus
# Details: Marburg virus pseudotyped entry inhibition, cell reporter; activity change, negative = inhibition: at 37.8 µM (top of the series) unless noted
# % is set by controls: 0 for no effect and ±100 for the full control effect; potency is the fitted concentration of half-maximal effect.
SMILES,Potency,"activity change, negative = inhibition"
C=CCNC(=S)N/N=C(\C)c1ccccn1,active: 0.259 µM,
O=C(Nc1ccccc1C(=O)N1CCCCCC1)c1ccccc1,,inactive: -2.4% [at 46.1 µM]
O=C(COc1ccccc1)NCCn1ccc2ccccc21,,inactive: 2.38%
COc1ccc(CCNC2=C(Cl)C(=O)N(Cc3ccccc3)C2=O)cc1OC,active: 11.2 µM,
Cc1ccccc1N1CCN(c2ncnc3c2cnn3Cc2ccc(Cl)cc2)CC1,"inconclusive: 22.4 µM [inhibitor, partial curve, poor fit]",
O=C(Nc1ccc(O)cc1)C1CC=CCC1 (centres undefined),"inconclusive: 0.0206 µM [inhibitor, full curve, poor fit]",
CCCCCC(=O)Nc1ccc(N2CCOCC2)c(S(=O)(=O)Nc2ccc(OC)cc2)c1,,inactive: -7.71% [at 46.1 µM]
COc1cccc(CC2(CO)CCN(Cc3cccn3-c3cccnc3)CC2)c1,,inconclusive: 5.48% [activator] [at 46.1 µM]
CCCCSc1nc2sc3c(c2c(=O)n1-c1ccc(C)cc1)CCN(C)C3,"inconclusive: 7.94 µM [inhibitor, partial curve, poor fit]",
Cc1ccc(NC(=S)Nc2ccc(C(C)C)cc2)cc1S(=O)(=O)N1CCCCCC1,"inconclusive: 8.91 µM [inhibitor, partial curve, poor fit]",
CCc1ccccc1Nc1nc2ccccc2n2cnnc12,,inactive: 12.6% [at 46.1 µM]
CC(C)(C)OC(=O)N1CCC(CNC(=O)Nc2ccccc2)CC1,"inconclusive: 5.01 µM [inhibitor, full curve]",
CS(=O)(=O)Cc1ccc(C(=O)Nc2cccc(-c3nc4ccccc4[nH]3)c2)cc1,,inactive: 10.8%
Cc1nc2ccccc2c(=O)n1/N=C/c1cn[nH]c1-c1ccccc1,,inactive: -18.2% [at 46.1 µM]
CC(C)CO/N=C1/C[C@@H](O)[C@@H](O)[C@@H]2[C@@H]3C(=O)N(C[C@@H]4CCCO4)C(=O)[C@H]3CC[C@H]12,,inactive: 10.4% [at 14.2 µM]
Cc1ccc(S(=O)(=O)N2CCC(C(=O)OCC(=O)N(C)C3CCCCC3)CC2)cc1C,"inconclusive: 35.5 µM [activator, single point]",
COc1ccc(Cl)cc1NC(=O)CSc1nc(-c2ccco2)cc(C(F)(F)F)n1,"inconclusive: 35.5 µM [inhibitor, partial curve, poor fit]",
Cc1cc2cc3c(cc2nc1SCc1ccc(C(=O)O)cc1)OCCO3,"inconclusive: 5.62 µM [activator, single point]",
O=C(/C=C/c1ccco1)c1ccc(NC(=O)C23CC4CC(CC(C4)C2)C3)cc1,"inconclusive: 0.112 µM [activator, full curve, poor fit]",
COc1ccccc1Cn1nc(C(=O)O)c2ccccc2c1=O,"inconclusive: 7.08 µM [activator, full curve, poor fit]",
O=C(Nc1nncs1)C12CC3CC(CC(Cl)(C3)C1)C2,,inactive: 10.9%
CCC1(c2ccc(F)cc2)NC(=O)N(CC(=O)Nc2ccccc2C)C1=O (centres undefined),,inactive: -9.21% [at 46.1 µM]
COc1cccc(-c2cc(C(=O)N/N=C/c3ccco3)c3ccccc3n2)c1,"inconclusive: 2.51 µM [inhibitor, full curve]",

SMILES,Potency,"activity change, negative = inhibition"
CSc1ccc(CCNC(=O)CSc2ccsc2[N+](=O)[O-])cc1,"inconclusive: 18.3 µM [inhibitor, single point]",
Cn1cc(CN2CCCC(CO)(Cc3ccccc3)C2)c2ccccc21 (centres undefined),active: 1 µM,
Oc1cccc2ccc(/C=C/c3c(F)cccc3Cl)nc12,"inconclusive: 23.1 µM [inhibitor, partial curve, poor fit]",
CCOC(=O)c1sc(NC(=O)CSc2n[nH]c(-c3ccccc3)n2)c(C#N)c1C,"inconclusive: 35.5 µM [inhibitor, single point]",
Cc1cc(=O)oc2cc(OC(C)C(=O)N3CCCc4ccccc43)ccc12 (centres undefined),"inconclusive: 0.708 µM [activator, partial curve, poor fit]",
CCn1c(SC)nnc1C1CCCN(CC(=O)Nc2ccccc2N2CCOCC2)C1 (centres undefined),"inconclusive: 5.01 µM [activator, full curve, poor fit]",
COc1ccc(-c2csc(/C(C#N)=C\c3cccc([N+](=O)[O-])c3)n2)cc1,,inactive: 15.8%
CC1CCN(CC(=O)Nc2ccc(N3CCCCCC3)cc2)CC1,"inconclusive: 3.55 µM [inhibitor, single point]",
CC1=CCn2c(=O)c3ccccc3c(=O)n2C1,,inactive: 44.3%
Cc1cc(=O)oc2c(CN3CCC(C)CC3)c(O)c(Cl)cc12,"inconclusive: 1.26 µM [activator, single point]",
O=C(c1ccco1)N(CCC(c1ccccc1)c1ccco1)Cc1ccc(F)cc1 (centres undefined),"inconclusive: 29.1 µM [inhibitor, single point]",
N#Cc1c(-c2cccs2)cc(-c2ccccn2)nc1N,"inconclusive: 0.282 µM [activator, full curve, poor fit]",
O=C(Nc1ccccc1)Nc1cc(Cl)cc(Cl)c1,"inconclusive: 25.1 µM [inhibitor, single point]",
O=C(Nc1nccs1)C1CCN(S(=O)(=O)c2ccc(F)cc2)CC1,"inconclusive: 6.31 µM [activator, single point]",
Cc1ccc(C(C)NC(=O)c2cc(C)oc2C)cc1 (centres undefined),"inconclusive: 0.282 µM [inhibitor, full curve, poor fit]",
CCOc1ccc(CCNC(=O)c2cn(CC)c3ccc(S(=O)(=O)N4CCCCCC4)cc3c2=O)cc1OCC,,inactive: -17.1% [at 46.1 µM]
Cc1ccc2c(c1)nnn2C1CCN(S(=O)(=O)c2cccc(S(=O)(=O)N(C)C)c2)CC1,"inconclusive: 5.8 µM [inhibitor, partial curve, poor fit]",
CC(C)Oc1ccc(C(CCN)C2CCCCC2)cc1 (centres undefined),"inconclusive: 8.91 µM [inhibitor, partial curve, poor fit]",
CCOc1nsc(OCC)n1,,inactive: 1.57% [at 46.1 µM]
CC(C)C(=O)N1CCN(c2ccc(NC(=O)c3ccc4c(c3)OCCO4)cc2Cl)CC1,active: 6.51 µM,
Cc1ccc(C)c(S(=O)(=O)N2CCCC2CNC(=O)C(=O)NC2CC2)c1 (centres undefined),,inactive: 20.8%
COC(=O)C1CCN(C(=O)NC(C)(C)C)CC1,"inconclusive: 0.112 µM [activator, full curve, poor fit]",
Oc1ccc(Nc2nc3ccccc3nc2Nc2ccc(O)cc2)cc1,"inconclusive: 12.6 µM [inhibitor, partial curve, poor fit]",

SMILES,Potency,"activity change, negative = inhibition"
Cc1nc2ccccc2nc1OCC(=O)Nc1cc(C(F)(F)F)ccc1N1CCOCC1,inactive,
O=C(NC(NC(=S)Nc1ccc(Cl)cc1Cl)C(Cl)(Cl)Cl)c1cccc([N+](=O)[O-])c1 (centres undefined),"inconclusive: 36.6 µM [inhibitor, partial curve, poor fit]",
Cc1nnc(NC(=O)CCS(=O)(=O)c2ccccc2)s1,,inactive: -22.4% [at 46.1 µM]
O=C(Nc1nc(=S)ss1)c1ccc(Cl)cc1Cl,"inconclusive: 0.631 µM [activator, partial curve, poor fit]",
Cc1c(NC(=O)c2ccc([N+](=O)[O-])o2)cccc1-c1nc2ncccc2o1,"inconclusive: 35.5 µM [inhibitor, single point]",
C/C(=N/NC(=O)c1ccncc1)c1ccc(NC(=O)c2ccc(Cl)cc2Cl)cc1,"inconclusive: 5.62 µM [activator, single point]",
CC1C(=O)N(Cc2cn(CC3CCCCC3)nn2)CCS(=O)(=O)N1Cc1ccc(-c2cccc(N(C)C)c2)cc1 (centres undefined),"inconclusive: 0.158 µM [inhibitor, full curve, poor fit]",
Cc1ccc(C(=O)NCCCNc2ccccc2[N+](=O)[O-])cc1,"inconclusive: 2 µM [activator, partial curve, poor fit]",
Oc1c(N=Nc2ccccn2)ccc2ccccc12,active: 3.98 µM,
C=C(C)C1CC=C(C)C(=NNC(=O)c2ccncc2)C1 (centres undefined),,inactive: 22.8% [at 46.1 µM]
COc1ccc(C)cc1-n1c(SCC(=O)NCC2CCCO2)nc2c([nH]c3ccccc32)c1=O (centres undefined),"inconclusive: 35.5 µM [inhibitor, single point]",
CCOC(=O)C1CCN(c2cc(C)nc3cc(-c4cccc(F)c4)nn23)CC1,"inconclusive: 29.1 µM [inhibitor, single point]",
COc1ccc(NS(=O)(=O)c2cc(N)ccc2N2CCCC2)cc1,"inconclusive: 15.8 µM [inhibitor, single point]",
COc1ccc(-c2cn(-c3ccc(C)c(C)c3)c(=S)[nH]2)cc1OC,,inactive: -1.87%
COc1ccc(CC(=O)Nc2cccc(-c3ccc4nncn4n3)c2)cc1OC,"inconclusive: 12.6 µM [inhibitor, partial curve, poor fit]",
Cc1cc(C(=O)NCc2cccs2)ccc1[N+](=O)[O-],,inactive: 9.69%
C#Cc1cccc(C(=O)N2CCCC(C(=O)c3ccc(OC)cc3C)C2)c1 (centres undefined),,inactive: 3%
COc1ccc(-n2c(=O)c3c4c(sc3n(CC(=O)Nc3cc(C)[nH]n3)c2=O)CCCC4)c(OC)c1,"inconclusive: 10 µM [inhibitor, partial curve, poor fit]",
CCOC(=O)c1ccccc1NC1CC(=O)N(c2ccccc2C)C1=O (centres undefined),,inactive: 1.24% [at 46.1 µM]
CN(c1ccccc1)S(=O)(=O)c1ccc(NC(=O)c2ccco2)cc1,"inconclusive: 35.5 µM [inhibitor, single point]",
CCN(CC)S(=O)(=O)c1ccc(C)c(NC(=O)CSc2nc3ccccc3[nH]2)c1,"inconclusive: 2.82 µM [inhibitor, partial curve, poor fit]",
CCS(=O)(=O)n1nc(-c2ccc(Cl)cc2)nc1SC,,inactive: -3.26%
Cc1onc(-c2c(F)cccc2Cl)c1C(=O)Nc1nccs1,"inconclusive: 7.08 µM [inhibitor, partial curve, poor fit]",

# 5 consecutive entries out of the list so far, quoted:
SMILES,Potency,"activity change, negative = inhibition"
CCOC(=O)c1ccccc1NC1CC(=O)N(c2ccccc2C)C1=O (centres undefined),,inactive: 1.24% [at 46.1 µM]
CN(c1ccccc1)S(=O)(=O)c1ccc(NC(=O)c2ccco2)cc1,"inconclusive: 35.5 µM [inhibitor, single point]",
CCN(CC)S(=O)(=O)c1ccc(C)c(NC(=O)CSc2nc3ccccc3[nH]2)c1,"inconclusive: 2.82 µM [inhibitor, partial curve, poor fit]",
CCS(=O)(=O)n1nc(-c2ccc(Cl)cc2)nc1SC,,inactive: -3.26%
Cc1onc(-c2c(F)cccc2Cl)c1C(=O)Nc1nccs1,"inconclusive: 7.08 µM [inhibitor, partial curve, poor fit]",
